Experimental data as given in US20050227272A1.
These are yes or no findings as the source states them, for the method shown. Binding seen in cells or lysates may run through a third protein. Binding calls can cover weak binding; strength is not graded here. Sequences can lack the tags named with a protein.

How the values were obtained:
Test in all cases: anti-His pull-down of His-SUMO4 complexes, 2D PAGE, MALDI-TOF/TOF
[1] = biological target: Pro2675
[2] = biological target: eukaryotic translation initiation factor 3
[3] = biological target: acyl-Coenzyme A dehydrogenase
[4] = biological target: thioredoxin-like protein
[5] = biological target: Mitochondrial Creatine Kinase
[6] = biological target: phosphoribosyl pyrophosphate synthetase
[7] = biological target: similar to Esterase D
[8] = biological target: TPMsk3
[9] = biological target: moesin/anaplastic lymphoma kinase fusion protein
[10] = biological target: WD-repeat protein
[11] = biological target: carbonate hydrolyase
[12] = biological target: Kunitz-type protease inhibitor
[13] = biological target: anti-colorectal carcinoma heavy chain
[14] = biological target: Trp26
[15] = biological target: Pyruvate kinase
[16] = biological target: platelet-activating factor acetylhydrolase, isoform Ib

Measured: binding

B1: His-tagged SUMO4 expressed in HEK293 cells from pcDNA3.1 (protein, not shown: small tags and cut ends)
chain: MANEKPTEEVKTENNNHINLKVAGQDGSVVQFKIKRQTPLSKLMKAYCEPRGLSMKQIRFRFGGQPISGTDKPAQLEMEDEDTIDVFQQPTGGVY
binds: all assays above
